Values from PubChem BioAssay AID1671195 (Yale University, 2021)

Screen: 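Knockdowns that increase or decrease uptake of fluorescent LDL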 (primary screen)
Cells: human Huh7 hepatoma cells
Reagents: siRNA pool against human genes, 18 nM
Duration: about 2 to 2.5 days of knockdown, then 8 h LDL uptake
Challenge: DiI-labelled LDL at 30 µg/ml for 8 h, in lipoprotein-deficient serum medium
Measurement: 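Fluorescent LDL signal imaged in cells, scaled to the plate median, robust z-score for each replicate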
Reading the numbers: robust z-score: higher = more LDL uptake after knockdown
Rule for the call: 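Active when two or more replicates show a robust z-score above 2 or below -2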
In all, the deposit lists about 22,000 reagents; this is an unselected part. Over the whole deposit, about 1,510 (6.9%) got an active call. 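Active includes knockdowns raising or lowering LDL uptake; positive z-scores mean more uptake, negative mean less.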 Entries without a mark were called inactive.

Gene,"robust z-score, replicate 1","robust z-score, replicate 2","robust z-score, replicate 3"
EIF2D (eukaryotic translation initiation factor 2D),-0.386,0.255,0.706
BSN (bassoon presynaptic cytomatrix protein),1.57,-0.885,-0.527
ITGA9 (integrin subunit alpha 9),0.95,-1.04,-1.07
MRPL18 (mitochondrial ribosomal protein L18),-0.101,0.552,1.68
"UQCR11 (ubiquinol-cytochrome c reductase, complex III subunit XI)",0.885,-0.343,0.413
XPO6 (exportin 6),-2.18,-0.308,-1.56
KCNV1,0.715,0.112,0.201
CRYL1 (crystallin lambda 1),0.46,0.218,-0.258
PPP1R15B (protein phosphatase 1 regulatory subunit 15B),-0.673,0.0871,-0.682
BOLA1 (bolA family member 1),0.714,-0.0991,-1.37
LAMB3 (laminin subunit beta 3),-1.08,-0.99,-1.02
KCNA3 (potassium voltage-gated channel subfamily A member 3),-1.67,-1.86,-1.92
H2BC13 (H2B clustered histone 13),0.463,2.17,1.34
HNRNPCL1 (heterogeneous nuclear ribonucleoprotein C like 1),-0.539,-0.678,-1.51
PCSK1 (proprotein convertase subtilisin/kexin type 1),-1.05,-1.64,-1.1
AKAP1 (A-kinase anchoring protein 1),-1.17,-1.14,-0.118
MCOLN2 (mucolipin TRP cation channel 2),0.882,0.311,0.874
LOC390358 (ret finger protein like 2 pseudogene),0.838,0.785,0.628
PTPRF (protein tyrosine phosphatase receptor type F),0.158,0.333,0.479
BBS1 (Bardet-Biedl syndrome 1),-0.894,-0.991,-0.454
CNDP1 (carnosine dipeptidase 1),1.49,1.55,1.14
TP53BP1 (tumor protein p53 binding protein 1),-0.0349,1.02,0.548
FRMPD1 (FERM and PDZ domain containing 1),1.68,-0.0987,1.26
FNDC1 (fibronectin type III domain containing 1),0.139,0.506,0.585
LOC440196 (retired record),1.16,0.694,0.851
TNS3 (tensin 3),0.777,0.936,1.2
CACNG3 (calcium voltage-gated channel auxiliary subunit gamma 3),1.28,1.93,1.99
C1QTNF6 (C1q and TNF related 6),0.717,-0.4,0.061
LOC440701 (retired record),-0.634,-0.411,-0.647
PIK3CB,-1.84,-1.86,-1.95
HDHD3 (haloacid dehalogenase like hydrolase domain containing 3),1.72,1.64,1.66
SMPD4 (sphingomyelin phosphodiesterase 4),2.51 (active),0.987,2.19

Sorted by “robust z-score, replicate 3” (descending): some entries from above.
Gene,"robust z-score, replicate 1","robust z-score, replicate 2","robust z-score, replicate 3"
H2BC13 (H2B clustered histone 13),0.463,2.17,1.34
CRYL1 (crystallin lambda 1),0.46,0.218,-0.258
PPP1R15B (protein phosphatase 1 regulatory subunit 15B),-0.673,0.0871,-0.682
LAMB3 (laminin subunit beta 3),-1.08,-0.99,-1.02
PCSK1 (proprotein convertase subtilisin/kexin type 1),-1.05,-1.64,-1.1
BOLA1 (bolA family member 1),0.714,-0.0991,-1.37
HNRNPCL1 (heterogeneous nuclear ribonucleoprotein C like 1),-0.539,-0.678,-1.51
KCNA3 (potassium voltage-gated channel subfamily A member 3),-1.67,-1.86,-1.92

More reagents follow.
Gene,"robust z-score, replicate 1","robust z-score, replicate 2","robust z-score, replicate 3"
ELOA (elongin A),4.69 (active),3.52,4.18
ING3 (inhibitor of growth family member 3),-1.23,-1.12,-1.31
"CABS1 (calcium binding protein, spermatid associated 1)",0.34,0.713,0.456
YPEL5 (yippee like 5),-1.21,-0.328,0.00277
SOX7 (SRY-box transcription factor 7),-0.838,-0.415,-1.03
ENTPD2 (ectonucleoside triphosphate diphosphohydrolase 2),-1.68,-1.62,-2.12
RBM26 (RNA binding motif protein 26),-0.559,-0.173,-0.47
AIG1 (androgen induced 1),0.677,0.663,0.79
RHOQ (ras homolog family member Q),-0.2,-0.328,0.266
"ALG3 (ALG3 alpha-1,3- mannosyltransferase)",0.536,0.0838,0.0124
NSMCE1 (NSE1 component of SMC5/6 complex),2.37,0.642,0.533
LOC441515 (retired record),-0.0689,0.153,-0.0615
JPH3 (junctophilin 3),-1.5,-1.16,-0.608
POU2F1 (POU class 2 homeobox 1),1.94 (active),1.83,2.01
C12orf43 (chromosome 12 open reading frame 43),0.848,1.32,1.08
PTPRZ1 (protein tyrosine phosphatase receptor type Z1),-0.376,0.0473,-0.109
RHBDD2 (rhomboid domain containing 2),0.947,1.06,1.05
NIT1 (nitrilase 1),-0.977,-0.472,-0.668
ARLN (allregulin),-1.44,-1.39,-1.27
MCOLN3 (mucolipin TRP cation channel 3),2.4 (active),1.22,1.93
PGD (phosphogluconate dehydrogenase),-0.318,0.484,-0.201
PDHA2 (pyruvate dehydrogenase E1 subunit alpha 2),-1.6,-1.43,-1.77
KIAA0492 (retired record),1.35,0.325,-0.668
LRRC10 (leucine rich repeat containing 10),-1.2,-0.999,-1.37
HSPA2 (heat shock protein family A (Hsp70) member 2),-0.894,-0.993,-0.681
CRYBB3 (crystallin beta B3),-0.795,0.502,-0.181
SLC25A1,-0.975,-0.805,-0.5
TIAM1 (TIAM Rac1 associated GEF 1),0.588,0.723,0.596
GOLGA4 (golgin A4),0.0274,0.205,-1.46
OXCT1 (3-oxoacid CoA-transferase 1),0.585,2.43,0.538
TSNARE1 (t-SNARE domain containing 1),-0.499,-1.02,-0.901
CST9L (cystatin 9 like),3.41 (active),3.46,3.14
LOC400577 (retired record),-0.0413,0.144,0.184
GPATCH3 (G-patch domain containing 3),0.481,0.336,-0.0762
LOC389988 (retired record),-0.177,-0.424,-0.765
MOSPD2 (motile sperm domain containing 2),-0.66,0.329,-0.412
